Data taken from EP2078752A2.
These are yes or no findings as the source states them, for the method shown. Some binding calls cover weakened binding; strength is not graded here.

Experiments:
[1] = target: T1, endogenous ALK-2 (activin type I receptor) of PAE/Chim A porcine aortic endothelial cells (porcine), E9M2M1; test: affinity cross-linking of 125I-activin A on PAE/Chim A cells then immunoprecipitation; details: remark: other sources report otherwise
T1 chain: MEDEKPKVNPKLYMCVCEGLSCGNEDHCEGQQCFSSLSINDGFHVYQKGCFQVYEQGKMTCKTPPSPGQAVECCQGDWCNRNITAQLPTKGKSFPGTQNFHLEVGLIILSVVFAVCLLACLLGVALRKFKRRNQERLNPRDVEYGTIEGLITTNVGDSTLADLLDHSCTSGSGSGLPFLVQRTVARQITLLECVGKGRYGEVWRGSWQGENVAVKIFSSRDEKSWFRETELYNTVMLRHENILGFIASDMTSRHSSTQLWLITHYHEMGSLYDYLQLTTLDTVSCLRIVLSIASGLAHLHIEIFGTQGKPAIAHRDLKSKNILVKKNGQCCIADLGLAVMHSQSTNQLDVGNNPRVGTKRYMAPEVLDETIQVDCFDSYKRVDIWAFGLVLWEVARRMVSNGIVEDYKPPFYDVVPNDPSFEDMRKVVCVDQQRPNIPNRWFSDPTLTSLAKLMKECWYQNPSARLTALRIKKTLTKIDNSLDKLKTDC

[2] = target: T2, human ALK-2 (clone HP53) (human), Q04771; test: affinity cross-linking of 125I-activin A then immunoprecipitation, COS-1 cells co-transfected with ActR-II; details: remark: other sources report otherwise
T2 chain: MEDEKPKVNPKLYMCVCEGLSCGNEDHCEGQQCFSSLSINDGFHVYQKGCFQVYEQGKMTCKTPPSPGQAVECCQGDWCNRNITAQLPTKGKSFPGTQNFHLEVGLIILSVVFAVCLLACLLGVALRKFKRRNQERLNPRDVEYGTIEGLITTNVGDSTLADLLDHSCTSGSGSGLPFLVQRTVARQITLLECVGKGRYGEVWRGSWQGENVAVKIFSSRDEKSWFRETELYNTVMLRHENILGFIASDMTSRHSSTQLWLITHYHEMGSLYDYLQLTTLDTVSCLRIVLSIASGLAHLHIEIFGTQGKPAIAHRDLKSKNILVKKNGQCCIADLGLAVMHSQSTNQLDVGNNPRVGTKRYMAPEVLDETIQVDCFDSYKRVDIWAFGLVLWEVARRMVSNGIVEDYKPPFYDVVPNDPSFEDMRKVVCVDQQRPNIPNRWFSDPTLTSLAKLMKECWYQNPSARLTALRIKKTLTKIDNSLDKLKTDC

binding [1]: binds
binding [2]: binds
B1: recombinant human activin A, iodinated (^125I-activin A), P08476 311-426 (ligand, UniProt P08476 311-426, looked up)
chain: GLECDGKVNICCKKQFFVSFKDIGWNDWIIAPSGYHANYCEGECPSHIAGTSGSSLSFHSTVINHYRMRGHSPFANLKSCCVPTKLRPMSMLYYDDGQNIIKKDIQNMIVEECGCS
modifications: here or on the partner: 125I-iodinated by the chloramine T method
